From article doi:10.1101/2022.03.04.482948
No constants are given. Whether binding was seen depends on the method and setting. Binding seen in cells or lysates may run through a third protein. Here binding means that the protein was enriched with, or labelled near, the bait; the list need not be complete. Blank lines part the entries; values can stand above or below the binder they belong to.

Molecular target: FAM172A bait of the BioID2-based screen
Assay: proximity labelling

B1: Importin-4 (protein, UniProt Q8VI75 1-1082)
chain: MEPAGLEQILKELLLPDTERIRRATEQLQTILRDPAALPALFDLLATATDSQIRQFAAVLTRRRLNNRWRRLAPEQRESLKSLVLTALQKETVHSVSVSLAQLSATIFRKEGLQGWPQFMNLLQHSTHSSHSPEKEVGLLLLSVVVSSQPEAFHAHQHELLQLLNETLSDVSFPGVLFYSLRTLTAIARYVRPDDVSLARMLVPKVVTALRTLIPLDEVKACEALEALDEMLETELPIINPHLSEVLTFCLEVAKNVALGEPLRVRVLCCLTFLVKVKSKALLKNRLVPPLLHALFPLMAAEPPMGQLDPEDQDSDDDDLEIGLMGETPKHFAVQVVDMLALHLPPEKLCPHVMPMLEEALRSEDPYQRKAGFLVLAVLSDGAGDHIRQRLLYPLLQIVCKGLDDPSQIVRNAALFALGQFSENLQPHISSYSEEVMPLLLSYLKSVPMGNTHHLAKACYALENFVENLGPKVQPYLPELMECMLQPLKNPSKARTKELAVSAIGAIATAAQDSLLPYFPTIMDLLREFLLTGHEDFHLVQIQSLETLGVLARALGESMKPLAEECCQLGLGLCIHIDDPDVRRCTYSLFAALSGLMGEGLGPYLPQITTLMLLSLRSTEGIVPQYDGISSFLLFDDDSEAEEEEELMDEDMEEEGDDSEISGYSVENAFFDEKEDTCTALGEISMNTCVAFLPFMDATFDEVYKLLECPHMNVRKSAYEALGQFCCALHKASQRSSSDPSSSPVLQTSLARVMPAYMQAVKVERERPVVMAVLESLTGVLRTCGSLALQPPGRLSELCNVLKAVLQKKTACQDAEEDDDEDDDQAEYDAMLLEHAGEAIPVLAATAGGHAFAPFFATFLPLLLCKTKQSCTVAEKSFAVGTLAESIQGLGTASAQFVSRLFPVLLNNAREADPEVRSNAIFGLGVLAEHGGCPAQDHFPKLLGLLLPLLARERHDRVRDNICGALARVLMASPVGKTEPQVLATLLRALPLKEDMEEWLTIGHLFSFLHQNNPEQVVDVASELLRICSLILPDNRIPPDTKAALLLLLTFLAKQHTDSFHTALGSLPNDKAQELQAMMGLT
binding: binds

B3: Importin-5 (protein, UniProt Q8BKC5 1-1097)
chain: MAAAAAEQQQFYLLLGNLLSPDNVVRKQAEETYENIPGRSKITFLLQAIRNTTAAEEARQMAAVLLRRLLSSAFDEVYPALPSDVQTAIKSELLMIIQMETQSSMRKKICDIAAELARNLIDEDGNNQWPEGLKFLFDSVSSQNMGLREAALHIFWNFPGIFGNQQQHYLDVIKRMLVQCMQDQEHPSIRTLSARATAAFILANEHNVALFKHFADLLPGFLQAVNDSCYQNDDSVLKSLVEIADTVPKYLRPHLEATLQLSLKLCGDTNLNNMQRQLALEVIVTLSETAAAMLRKHTSLIAQTIPQMLAMMVDLEEDEDWANADELEDDDFDSNAVAGESALDRMACGLGGKLVLPMIKEHIMQMLQNPDWKYRHAGLMALSAIGEGCHQQMEGILNEIVNFVLLFLQDPHPRVRYAACNAVGQMATDFAPGFQKKFHEKVIAALLQTMEDQGNQRVQAHAAAALINFTEDCPKSLLIPYLDNLVKHLHSIMVLKLQELIQKGTKLVLEQVVTSIASVADTAEEKFVPYYDLFMPSLKHIVENAVQKELRLLRGKTIECISLIGLAVGKEKFMQDASDVMQLLLKTQTDFNDMEDDDPQISYMISAWARMCKILGKEFQQYLPVVMGPLMKTASIKPEVALLDTQDMENMSDDDGWEFVNLGDQQSFGIKTAGLEEKSTACQMLVCYAKELKEGFVEYTEQVVKLMVPLLKFYFHDGVRVAAAESMPLLLECARVRGPEYLTQMWHFMCDALIKAIGTEPDSDVLSEIMHSFAKCIEVMGDGCLNNEHFEELGGILKAKLEEHFKNQELRQVKRQDEDYDEQVEESLQDEDDNDVYILTKVSDILHSIFSSYKEKVLPWFEQLLPLIVNLICPQRPWPDRQWGLCIFDDIVEHCSPASFKYAEYFISPMLQYVCDNSPEVRQAAAYGLGVMAQFGGDNYRPFCTDALPLLVRVIQAPEAKTKENVNATENCISAVGKIMKFKPDCVNVEEVLPHWLSWLPLHEDKEEAVQTFSYLCDLIESNHPIVLGPNNTNLPKIFSIIAEGEMHEAIKHEDPCAKRLANVVRQVQTSGGLWTECIAQLSPEQQAAIQELLNSA
binding: binds

B4: Importin-11 (protein, UniProt Q8K2V6 1-975)
chain: MDLNSASSVVLQVLTQATSQDTAVLKPAEEQLKQWETQPGFYSVLLNIFTNHTLDINVRWLAVLYFKHGIDRYWRRVAPHALSEEEKSTLRAGLITNFNEPINQIATQIAVLIAKVARLDCPRQWPELIPTLVESVKVQDDLRQHRALLTFYHVTKTLASKRLAADRKLFYDLASGIYNFACSLWNHHTDTFLQHVSSGNEAAVLSSLERTLLSLKVLRKLTVNGFVEPHKNMEVMGFLHGIFERLKQFLECSRSIGTDNVCRDRLEKTIILFTKVLLDFLDQHPISFTPLIQRSLEFSVSYVFTEVGEGVTFERFIVQCMNLIKMIVKNYAYKPSKNFEDSSPETLEAHKIKMAFFTYPTLTEICRRLVSHYFLLTEEELTMWEEDPEGFTVEETGGDSWKYSLRPCTEVLFIDIFHEYNQTLTPVLLEMMQTLEGPTNVEDMNALLIKDAVYNAVGLAAFELFDSVDFDQWFKTQLLPELQVSHNRYKPLRRRVIWLIGQWISVKFKSDLRPMLYEAICNLLQDQDLVVRIETATTLKLTVDDFEFRTDQFLPYLETMFTLLFQLLQQVTECDTKMHVLHVLSCVIERVNVQIRPYVGCLVQYLPLLWKQSEEHNMLRCAILTTLIHLVQGLGADSKNLYPFLLPVIQLSTDVSQPPHVYLLEDGLELWLVTLENSPCVTPELLRIFQNMSPLLELSSENLRTCFKIINGYIFLSSTEFLQTYAAGLCQSFYELLPEITTEGQVQVLKVVENALKVNPVLGPQMFQRILPCVFRGVIEGERYPVVMSIYLAVMGRVLLQNTSFFSSLLNEMGHEFNQEMDQLLGNVIEMWVDRMDNITQPERKKLSALALLSLLPSDNSVIQDKFCGIINISVEALHDVMTEDPETRTYKDCMLMSQHEEPKVTEDEEPPTEQDKRKKMLALKDPVHTVSLQQFIYEKLKAQQEILGEQGFQSLMETVDTEIVTQLQEFLQGF
binding: binds

The remaining lines, values ahead:

binding: binds
B2: Nucleoporin NUP-50 (protein, UniProt Q9JIH2 1-466)
chain: MAKRVAEKELTDRNWDEEDEVEEMGTFSVASEEVMKNRAVKKAKRRNVGFESDSGGAFKGFKGLVVPSGGGGFSGFGGSGGKPLEGLTNGNSTDNATPFSNVKTAAEPKAAFGSFAVNGPTTLVDKKISSPKCNNSNQPPSSGPASSTACPGNAYHKQLAGLNCSVRDWIVKHVNTNPLCDLTPIFKDYERYLATIEKQLENGGGSSSESQTDRATAGMEPPSLFGSTKLQQESPFSFHGNKAEDTSEKVEFTAEKKSDAAQGATSASFSFGKKIESSALGSLSSGSLTGFSFSAGSSSLFGKDAAQSKAASSLFSAKASESPAGGGSSECRDGEEEENDEPPKVVVTEVKEEDAFYSKKCKLFYKKDNEFKEKGVGTLHLKPTATQKTQLLVRADTNLGNILLNVLIAPNMPCTRTGKNNVLIVCVPNPPLDEKQPTLPATMLIRVKTSEDADELHKILLEKKDA

binding: binds
B5: Nucleoporin NUP-93 (protein, UniProt Q8BJ71 1-819)
chain: MDTEGFGELLQQAEQLAAETEGISELPHVERNLQEIQQAGERLRSRTLTRTSQETADVKASVLLGSRGLDISHISQRLESLSAATTFEPLEPVKDTDIQGFLKNEKDNALLSAIEESRKRTFGMAEEYHRESMLVEWEQVKQRILHTLLASGEDALDFTQESEPSYIGDVNPPGRSSLDSIEMAYARQIYIYNEKIVSGHLQPNLVDLCASVAELDDKSISDMWAMVKQMTDVVLTPATDALKSRSSVEVRMDFVKQALGYLEQSYKNYTLVTVFGNLHQAQLGGVPGTYQLVRSFLNIKLPAPSPGLQDGEVEGHPVWALIYYCMRCGDLLAASQVVSRAQHQLGEFKTWFQEYMNSKDRRLSPATENKLRLHYRRALRNNTDPYKRAVYCIIGRCDITDNQSEVADKTEDYLWLKLNQVCFDDDGTSSPQDRLTLSQFQKQLLEDYGESHFTVNQQPFLYFQVLFLTAQFEAAIAFLFRMERLRCHAVHVALVLFELKLLLKSSGQSAQLLSHEPGDPPCMRRLNFVRLLMLYTRKFESTDPREALQYFYFLRDEKDSQGENMFLRCVSELVIESREFDMILGKLENDGSRKPGVIDKFTSDTKPIINKVASVAENKGLFEEAAKLYDLAKNADKVLELMNKLLSPVVPQISAPQSNKERLKNMALSIAERYRAQGISANKFVDSTFYLLLDLITFFDEYHSGHIDRAFDIIDRLKLVPLNQESVEERVAAFRNFSDEIRHNLSEVLLATMNILFTQFKRLKGTSPSSATRPQRVIEDRDSQLRSQARALITFAGMIPYRTSGDTNARLVQMEVLMN

binding: binds
B6: Nucleoporin NUP-88 (protein, UniProt Q8CEC0 1-753)
chain: MAAAVGPLGDGELWQSWLPNHVVFLRLREGVRNQSPAEAEKPAASTSPSCPSLPPHLPTRNLVFGLGGELFLWDAEGSAFLVVRLRGPSGGGVEPPLSQYQRLLCINPPLFEIHQVLLSPTQHHVALIGSKGLMALELPQRWGKDSEFEGGKATVNCSTIPIAERFFTSSTSLTLKHAAWYPSEMLDPHIVLLTSDNVIRIYSLREPQTPTKVIVLSEAEEESLILNKGRAYTASLGETAVAFDFGPLVTVSKNIFEQKDRDVVAYPLYILYENGETFLTYVSLLHSPGNIGKLLGPLPMHPAAEDNYGYDACAILCLPCVPNILVIATESGMLYHCVVLEGEEEDDQTLEKSWDPRADFIPSLYVFECVELELALKLASGEDDPFASDFSCPIKLHRDPKCPSRYHCSHEAGVHSVGLTWIHKLHKFLGSDEEDKDSLQELTAEQKCFVEHILCTKPLPCRQPAPIRGFWIVPDILGPTMICITSTYECLIRPLLSTVHPASPPLLCTQEDAEVAESPLRILAETPDSFEKHIKRILQRSAANPAFLKNCSARSSEKDLAPPPEECLQLISRATQVFREQYILKQDLAKEEIQRRVKLLCDQKRKQLEDLNYCREERVSHLFRKSLREMAERLADKYEEAKEKQEDIMNRMKKVLHSFHAQLPVLSDSERDMKKELQLIPDQLRHLGNAIKQVTMKKDYQQRKMEKVLSPQKPTITLSAYQRKCIQSILKEEGEHIREMVKQINDIRNHVTF
